Source: patent US20250161505A1, “CD206 Targeted Peptide Conjugates and Methods of Using the Same” (Riptide Bioscience, Inc., priority 2022, published 2025)
Not every detail of the peptide structures is certain; ends, links or a residue may be inferred. Where a SMILES comes first, the peptide text is derived from it. The star is where a group is joined. DOTA = O=C(O)CN1CCN(CC(=O)O)CCN(CC(=O)*)CCN(CC(=O)O)CC1

How the values were obtained:
mouse CD206 protein = target: T1, mouse CD206 protein (Mus musculus, UniProt Q61830); assay: CD206 protein plate binding assay
T1 construct: purchased R&D Systems
T1 sequence (Q61830 20-1456): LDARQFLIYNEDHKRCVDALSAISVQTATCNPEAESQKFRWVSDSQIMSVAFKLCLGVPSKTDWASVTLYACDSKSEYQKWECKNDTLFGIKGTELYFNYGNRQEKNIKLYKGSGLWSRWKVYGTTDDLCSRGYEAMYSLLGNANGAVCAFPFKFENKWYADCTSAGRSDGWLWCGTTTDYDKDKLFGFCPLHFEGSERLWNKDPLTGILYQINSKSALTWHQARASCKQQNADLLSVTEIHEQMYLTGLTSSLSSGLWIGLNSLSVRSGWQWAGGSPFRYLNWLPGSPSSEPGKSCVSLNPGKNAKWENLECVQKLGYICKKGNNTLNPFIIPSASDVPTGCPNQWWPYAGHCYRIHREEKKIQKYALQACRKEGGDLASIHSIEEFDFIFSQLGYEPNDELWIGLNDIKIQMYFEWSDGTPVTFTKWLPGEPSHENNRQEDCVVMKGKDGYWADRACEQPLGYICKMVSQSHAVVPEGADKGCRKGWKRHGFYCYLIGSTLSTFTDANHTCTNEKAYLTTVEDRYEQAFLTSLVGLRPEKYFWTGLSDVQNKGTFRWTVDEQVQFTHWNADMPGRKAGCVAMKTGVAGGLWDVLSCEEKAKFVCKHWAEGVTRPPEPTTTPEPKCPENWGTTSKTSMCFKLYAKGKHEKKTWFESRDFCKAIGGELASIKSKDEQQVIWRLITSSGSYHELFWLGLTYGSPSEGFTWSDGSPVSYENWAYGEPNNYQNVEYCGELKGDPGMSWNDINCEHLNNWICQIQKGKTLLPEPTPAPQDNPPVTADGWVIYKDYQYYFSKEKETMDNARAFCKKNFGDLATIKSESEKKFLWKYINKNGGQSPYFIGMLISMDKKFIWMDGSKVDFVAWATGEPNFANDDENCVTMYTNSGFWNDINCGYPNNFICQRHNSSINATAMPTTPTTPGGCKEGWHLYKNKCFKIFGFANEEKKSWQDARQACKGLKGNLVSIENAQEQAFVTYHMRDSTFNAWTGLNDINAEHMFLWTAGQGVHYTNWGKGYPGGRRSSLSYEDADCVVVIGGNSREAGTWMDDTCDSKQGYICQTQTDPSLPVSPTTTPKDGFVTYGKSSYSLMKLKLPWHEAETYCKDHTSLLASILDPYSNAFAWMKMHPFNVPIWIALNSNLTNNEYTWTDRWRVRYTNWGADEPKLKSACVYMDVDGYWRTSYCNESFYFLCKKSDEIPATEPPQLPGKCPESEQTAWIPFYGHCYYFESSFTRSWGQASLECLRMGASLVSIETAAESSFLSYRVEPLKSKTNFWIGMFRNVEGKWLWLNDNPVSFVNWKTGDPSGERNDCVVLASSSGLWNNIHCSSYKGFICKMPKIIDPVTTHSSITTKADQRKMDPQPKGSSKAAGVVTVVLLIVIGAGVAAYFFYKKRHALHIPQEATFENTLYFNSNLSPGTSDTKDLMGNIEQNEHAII

[1] = In vitro stability in PBS (radio-HPLC); assay type: physicochemical; conditions: 37 degrees Celsius

With `N=C(N)NCCC[C@H](NC(=O)[C@H](Cc1c[nH]c2ccccc12)NC(=O)[C@H](CCCCN)NC(=O)[C@H](Cc1ccccc1)NC(=O)CNC(=O)CNC(=O)[C@H](Cc1ccccc1)NC(=O)[C@H](CCCCN)NC(=O)[C@H](Cc1c[nH]c2ccccc12)NC(=O)[C@H](CCCNC(=N)N)NC(=O)CN1CCN(CC(=O)O)CCN(CC(=O)O)CCN(CC(=O)O)CC1)C(=O)O` [[^68Ga]RP832c, metal not drawn] ({DOTA}-RWKFGGFKWR-OH) the “average percentage of binding, blocking group” value (mouse CD206 protein; 50 nM labeled peptide solution and 5 μM unlabeled peptide blocking solution) was 18.80±1.37%, the “average percentage of binding, non-blocking group” value (mouse CD206 protein; 50 nM labeled peptide solution and PBS, 1 hour at 37 degrees Celsius) was 65.39±6.82% and the “free ^68Ga (^68Ga remained complexed)” value ([1]; three hours, HPLC) was “less than one percent free ^68Ga”. The peptide integrity ([1]; up to three hours) was “remained intact”.
